Measurements from US5310884A (Merck Frosst Canada, Inc., priority 1992, dated 1994).
Read-outs that look alike come from different tables or passages of the source. At least one read-out could not be matched to a standard name with certainty.

Assays:
[1] = target: T1, LTD4 receptor (guinea-pig lung membranes) (Cavia porcellus, UniProt Q2NNR5); conditions: read-out: IC50 for inhibition of [3H]LTD4 specific binding; nucleotide analogue
T1 sequence (Q2NNR5 1-340): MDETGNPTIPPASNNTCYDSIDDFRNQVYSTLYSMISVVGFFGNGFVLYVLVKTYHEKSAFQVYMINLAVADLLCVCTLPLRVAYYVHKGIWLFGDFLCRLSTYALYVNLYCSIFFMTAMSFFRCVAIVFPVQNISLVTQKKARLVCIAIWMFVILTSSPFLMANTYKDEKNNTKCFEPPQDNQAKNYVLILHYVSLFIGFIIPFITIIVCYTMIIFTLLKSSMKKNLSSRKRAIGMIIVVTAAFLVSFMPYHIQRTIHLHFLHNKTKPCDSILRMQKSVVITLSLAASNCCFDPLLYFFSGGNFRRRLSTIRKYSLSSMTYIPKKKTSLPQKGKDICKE
Description: (§1) Guinea pigs (male; 350 g) were sacrificed by cervical dislocation and the lung tissues removed. All subsequent procedures were performed either on ice or at 4° C. Connective tissue, trachea, large blood vessels and major airways were dissected away and the remaining lung tissue (primarily parenchyma) was finely minced prior to homogenisation in 10 vol of 10 mM HEPES/KOH pH 7.4, containing 0.25 M sucrose, 2 mM EDTA, 2 mM phenylmethylsulphonyl fluoride, 10 μg/ml pepstatin, 10 μg/ml leupeptin and 10 μM E-64, using 5 s bursts of a polytron (Brinkman Instruments). The homogenate was subjected to differential centrifugation at 1000×g for 10 min, 10,000×g for 10 min and 100,000×g for 40 min. The resulting 100,000×g pellets were resuspended in 10 mM HEPES/KOH pH 7.4, containing 10% (w/v) sucrose, at a final protein concentration of 1-2 mg/ml. […]
Competition experiments were analysed and IC50 values derived using the Kinetic, EBDA, Ligand, […] program from Biosoft (McPherson, 1985).
(§2) FIG. 4. […] Results are expressed as percentage of maximum specific binding as a function of CaCl2 concentration. […]
(§3) Results are expressed as percentage of maximum specific binding as a function of nucleotide concentration. […]
(§4) Results are expressed as percentage of maximum specific binding as a function of cation concentration. […]

[2] = target: T1, LTD4 receptor (guinea-pig lung membranes); conditions: read-out: IC50 for inhibition of [125I]Azido-LTD4 specific binding; nucleotide analogue
Description: as §1, with “mg/ml. This tissue suspension was carefully layered over 10 mM HEPES/KOH pH 7.4 containing 40% (w/v) sucrose in a 3:2 (v/v) ratio. The discontinuous sucrose gradient was centrifuged at 83,000×g for 60 min.” for “mg/ml.”
as §2, §3, §4

Nc1nc2c(ncn2[C@@H]2O[C@H](COP(=O)(O)OP(=O)(O)OP(O)(O)=S)[C@@H](O)[C@H]2O)c(=O)[nH]1 [GTPγS]
IC50 [1]: 10 µM
IC50 [2]: 1 µM
